# Reference: PubChem BioAssay AID504834 (National Center for Advancing Translational Sciences (NCATS), 2011)
# Among all 320,000 compounds or so, about 22,000 (6.9%) were called active. Inconclusive results, whose numbers are uncertain, are shown with a selection of clear calls. Calls follow the shape of the dose curve; as a rule, active = well fitted inhibition curve with a large enough effect; inconclusive = small, poorly fitted or top-dose-only effect, or another doubt; inactive = no such curve, though single readings can be large or run the other way. A potency beside an inconclusive call is a rough fit, not a confirmed value.
# Assay: Primary qHTS for delayed death inhibitors of the malarial parasite plastid, 96 hour incubation
# Settings: P. falciparum luciferase reporter growth; series mostly up to 28.7 µM; activity change, negative = inhibition: at the top concentration
# Procedure, shortened: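 Parasite growth measured via integrated firefly luciferase reporter in P. falciparum. Infected erythrocytes at 2% hematocrit, 0.05% parasitemia final were treated 96 hours at 37 C under 5% CO2, and luminescence was read.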
# % is scaled to controls: 0 for no effect and ±100 for the full control effect; potency is read from the fitted curve at half-maximal effect.
Compound,"activity change, negative = inhibition",Potency
Nc1nnc(N2CCCCC2)s1,inactive: -13.1%,–
C[C@H](NC(=O)c1nc[nH]c1C(=O)N[C@@H](CCCCNC(=O)OC(C)(C)C)C(=O)OC(C)(C)C)c1ccccc1,–,"inconclusive: 10.4 µM [inhibitor, single point]"
Cc1nn(Cc2ccccc2Cl)c(C)c1NC(=O)c1cc(-c2ccc(F)cc2)on1,–,"inconclusive: 13.1 µM [inhibitor, partial curve, poor fit]"
O=C(CSc1nnc(-c2c[nH]c3ccccc23)n1CC1CCCO1)Nc1ccc2c(c1)OCCO2 (stereo unspecified),–,"inconclusive: 8.28 µM [inhibitor, partial curve, poor fit]"
CCC(C(=O)NC1CCCC1)N(Cc1ccco1)C(=O)CNS(=O)(=O)c1ccccc1 (stereo unspecified),inactive: -22.9%,–
COc1cccc(CN2CC(C(=O)NCCn3cccn3)CCC2=O)c1 (stereo unspecified),–,"inconclusive: 0.657 µM [inhibitor, full curve, poor fit]"
CN(C)S(=O)(=O)c1ccc(NC(=O)CCNC(=O)c2ccc([N+](=O)[O-])cc2)cc1,–,"inconclusive: 7.38 µM [inhibitor, partial curve, poor fit]"
CC(C)(C)C(=O)Nc1nc(C2CCCN2S(=O)(=O)c2ccc(Cl)cc2)cs1 (stereo unspecified),–,"inconclusive: 6.57 µM [inhibitor, partial curve, poor fit]"
COc1cccc(-n2c(SCC(=O)NCc3ccco3)nnc2-c2c[nH]c3ccccc23)c1,–,"inconclusive: 11.7 µM [inhibitor, partial curve, poor fit]"
Cc1cc(=O)[nH]c(SCC(=O)Nc2cccc(S(=O)(=O)N3CCOCC3)c2)n1,–,"inconclusive: 18.5 µM [inhibitor, single point]"
CC(=O)Oc1ccc2oc(/C=C/N(C)C)c([N+](=O)[O-])c2c1,–,"inconclusive: 0.415 µM [inhibitor, full curve, poor fit]"
Cc1ccc2nc(Cl)c(/C=N/NC(=O)[C@H]3C[C@@H]3c3ccccc3)cc2c1,–,active: 2.08 µM
C=CCc1cc(/C=C2/NC(=S)NC2=O)cc(OC)c1O,inactive: -1.61%,–
Cc1ccc(NC(=O)NNC(=O)Cn2nc(-c3ccccc3)c(-c3ccccc3)c(C#N)c2=O)cc1,–,"inconclusive: 10.4 µM [inhibitor, single point]"
Cc1cc(NC(=O)CCN2CCCCC2)ccc1Br,–,active: 2.62 µM
CC1CCCN(C(=O)COc2ccc(-c3ccccc3)cc2)C1 (stereo unspecified),inactive: 10.6%,–
CCc1ccc2[nH]c(=O)c(CN(Cc3ccc(OC)cc3)Cc3nnnn3CCOC)cc2c1,–,"inconclusive: 0.828 µM [inhibitor, partial curve, poor fit]"
COc1ccc(NC(=O)COC(=O)Cc2cccs2)cc1OC,inactive: 8.58%,–
COc1ccccc1NC(=O)c1c(Nc2ccccc2C)sc(C(=O)Nc2cccc(Cl)c2)c1N,–,active: 10.4 µM
CC(/C=N/NC(=O)c1cccc([N+](=O)[O-])c1)=C\c1ccccc1,inactive: 1.59%,–
O=C(CCSc1nnc2ccc3ccccc3n12)Nc1ccc(F)cc1,–,"inconclusive: 11.7 µM [inhibitor, single point]"
CCOc1ccc(N2C(=O)C(CC(=O)Nc3ccc(F)cc3)N(Cc3ccccn3)C2=S)cc1 (stereo unspecified),–,"inconclusive: 18.5 µM [inhibitor, single point]"

Compound,"activity change, negative = inhibition",Potency
O=C(O)Cn1cc(/C=C2/SC(=O)N(CC(=O)N3CCCCCC3)C2=O)c2ccccc21,–,"inconclusive: 18.5 µM [inhibitor, single point]"
Cc1ccc(NC(=O)CN2C(=O)NC3(CCc4ccccc43)C2=O)cc1S(=O)(=O)N1CCCCC1 (stereo unspecified),–,"inconclusive: 18.5 µM [inhibitor, single point]"
CCOc1ccc(C2=Nn3c(CC)nnc3SC2)cc1,–,"inconclusive: 14.7 µM [inhibitor, partial curve, poor fit]"
CCCn1nnnc1SCC(=O)N1CCCCC1,–,"inconclusive: 18.5 µM [inhibitor, single point]"
O=C1C(=O)c2ccccc2C(O)=C1c1ccccc1F,–,"inconclusive: 11.7 µM [inhibitor, partial curve]"
O=CN1CCN(C(C(=O)NC2CCCCC2)c2cc3c(cc2[N+](=O)[O-])OCO3)CC1 (stereo unspecified),inactive: 35.5% [at 1.15 µM],–
Cc1nc(NC(=O)c2ccccc2)sc1-c1csc(Nc2ccc(Cl)cc2Cl)n1,–,active: 3.29 µM
Cc1ccc2c(CN3CCN(S(=O)(=O)c4ccc5c(c4)OCCO5)CC3)cc(=O)oc2c1C,–,"inconclusive: 18.5 µM [inhibitor, single point]"
COc1cc(C(=O)Nc2nnc(CC(=O)N3CCOCC3)s2)cc(OC)c1OC,–,"inconclusive: 18.5 µM [inhibitor, single point]"
Cc1c(Cl)cccc1NC(=O)CCCn1nc([N+](=O)[O-])cc1C,–,"inconclusive: 2.33 µM [inhibitor, single point]"
CNC(=O)[C@H](C)[C@@H]1C[C@@]1(C)[C@@H](NC(=O)OCc1ccccc1)c1ccccc1,–,"inconclusive: 18.5 µM [inhibitor, single point]"
CCN(Cc1ccncc1)Cc1c(O)ccc2ccccc12,–,"inconclusive: 18.5 µM [inhibitor, single point]"
C/C(=N\NC(N)=S)c1ccccc1,–,"inconclusive: 18.5 µM [inhibitor, single point]"
CCOC(=O)N1CCN(c2nc(-c3ccccc3)c3ccccc3n2)CC1,–,"inconclusive: 18.5 µM [inhibitor, single point]"
CN(C(=O)c1ccc(Br)o1)C1(C)CCS(=O)(=O)C1 (stereo unspecified),–,"inconclusive: 10.4 µM [inhibitor, single point]"
CC1CCc2ccccc2N1CC(=O)Nc1cccc(S(=O)(=O)N2CCCC2)c1 (stereo unspecified),–,"inconclusive: 2.62 µM [inhibitor, partial curve, poor fit]"
Cc1cccc(NC(=O)C2CCCC2)c1,inactive: -12.5%,–
O=C1N(CN2CCN(Cc3ccccc3)CC2)c2ccccc2C12OCCCO2,inactive: 14.7%,–
Cc1ccccc1NS(=O)(=O)c1nnc(NC(=O)C(C)C)s1,–,"inconclusive: 4.15 µM [inhibitor, partial curve]"
CCC1(c2ccccc2)NC(=O)N(C)C1=O (stereo unspecified),inactive: 9.4%,–
C#CCOCCOCCOCCNc1nc(N2CCOCC2)nc(N2CCN(C(=O)Cn3cc(CCCN=C(N)N)nn3)CC2)n1,–,"inconclusive: 10.4 µM [inhibitor, partial curve, poor fit]"
N#Cc1ccc(C23CC4CC(CC(C4)C2)C3)[nH]c1=O,–,active: 3.7 µM

Compound,"activity change, negative = inhibition",Potency
COc1cc(-c2n[nH]c(=S)n2-c2cccc(C(F)(F)F)c2)cc(OC)c1OC,–,"inconclusive: 1.85 µM [inhibitor, partial curve, poor fit]"
CCCNc1nc(Cl)nc(NC(C)(C)C)n1,–,"inconclusive: 0.465 µM [inhibitor, partial curve, poor fit]"
CCOC(=O)c1ccc(NC(=O)c2nc[nH]c2C(=O)NC2CCN(C(=O)OC(C)(C)C)CC2)cc1,–,"inconclusive: 5.22 µM [inhibitor, partial curve]"
COCCOC(=O)c1c(C)oc2ccc(OCc3cc(C(=O)OC)oc3C)cc12,–,"inconclusive: 10.4 µM [inhibitor, single point]"
CCN(CC)c1ccc(/C=N/NC(=S)NCc2ccc(OC)cc2)cc1,–,"inconclusive: 18.5 µM [inhibitor, single point]"
Cc1nnsc1C(=O)N1CCCC(C(=O)c2ccc(C(F)(F)F)cc2)C1 (stereo unspecified),–,"inconclusive: 18.5 µM [inhibitor, single point]"
COc1ccc(C)cc1NC(=O)NNS(=O)(=O)c1ccc(NC(C)=O)cc1,inactive: 43.8%,–
O=c1c(Cl)c(N2CCN(c3ccccc3)CC2)cnn1C12CC3CC(CC(C3)C1)C2,–,"inconclusive: 0.329 µM [inhibitor, full curve]"
COc1ccc([C@H]2CC(=O)C=C(c3cccc(Cl)c3O)C2)cc1OC,–,active: 9.28 µM
Fc1ccc(-n2c(-c3ccc4ccccc4n3)n[nH]c2=S)cc1Cl,inactive: 12.1%,–
COc1ccccc1CNC(=O)c1c(-c2ccccc2Cl)noc1C,inactive: 57.2%,–
Cc1ccccc1-c1nnn(Cc2ccc(-c3nn[nH]n3)cc2)n1,–,"inconclusive: 5.86 µM [inhibitor, partial curve, poor fit]"
COC(=O)CSc1nnc(-c2ccc(OC)c(OC)c2)o1,inactive: -6.45%,–
COC(=O)c1ccc(C23CC4(C2)[C@H](CN(CC2CCCCC2)[C@@H]4c2ccccc2)C3c2ccc(C(F)(F)F)cc2)cc1 (stereo partly specified),–,"inconclusive: 10.4 µM [inhibitor, single point]"
Cc1ccc(-c2csc(NC(=O)c3ccc([N+](=O)[O-])o3)n2)cc1,–,active: 2.62 µM
O=C(O)c1cc2nc(-c3ccc(F)cc3)cc(C(F)(F)F)n2n1,–,"inconclusive: 1.65 µM [inhibitor, full curve]"
Cc1ccc(S(=O)(=O)NNC(=O)c2cc(C)cs2)cc1,inactive: 28.5%,–
O=C1NC(=Nc2ccccc2)S/C1=C\C=C\c1ccco1,–,"inconclusive: 1.04 µM [inhibitor, partial curve, poor fit]"
CC(=O)c1cccc(N(CC(=O)Nc2cccnc2)S(C)(=O)=O)c1,–,"inconclusive: 18.5 µM [inhibitor, single point]"
CCOC(=O)c1c(NC(=O)CNCC(O)CO)sc(C)c1C (stereo unspecified),–,"inconclusive: 10.4 µM [inhibitor, single point]"
Cc1cc(C(=O)Cn2cnc3cc([N+](=O)[O-])ccc3c2=O)c(C)n1CC1CCCO1 (stereo unspecified),–,"inconclusive: 18.5 µM [inhibitor, single point]"
COc1cc2c(cc1OC)C1(Nc3c-2c(C)nn3-c2ccccc2)C(=O)Nc2ccccc21 (stereo unspecified),–,active: 1.47 µM

# 2 entries from above in another layout:
Compound	activity change, negative = inhibition	Potency
Cc1nn(Cc2ccccc2Cl)c(C)c1NC(=O)c1cc(-c2ccc(F)cc2)on1	–	inconclusive: 13.1 µM [inhibitor, partial curve, poor fit]
O=C(CSc1nnc(-c2c[nH]c3ccccc23)n1CC1CCCO1)Nc1ccc2c(c1)OCCO2 (stereo unspecified)	–	inconclusive: 8.28 µM [inhibitor, partial curve, poor fit]
